In PubChem BioAssay AID1259415 (National Center for Advancing Translational Sciences (NCATS), 2018):
Out of some 410,000 compounds screened, about 18,000 (4.4%) were called active. The inconclusive results got no clear call from the source; some entries with a clear call stand among them for comparison. No stated cut-off is given here; in the data, active means activity change below about -60%; inconclusive means no clear call, values can overlap the other calls; inactive means above about -39%. Some structures have more than one record in an assay (separate samples or runs), and their calls can disagree.

test: qHTS Assay for inhibitors of the human cytomegalovirus (HCMV); details: HFF cells, HCMV-luciferase reporter, 72 h; at 57.5 µM; hits give low values
Outline: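 HFF cells seeded 16 h at 37C, treated with compounds, infected with luciferase-reporter HCMV at MOI 1 PFU/cell; luciferase read at 72 h post infection, normalized to buffer-only and Salinomycin controls.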
On the % scale 0 is the no-effect control and ±100 the full control effect.

SMILES | activity change, negative = inhibition
COc1ccccc1NC(=S)NC1CCCCCC1 | inactive: -27.3%
O=C(N/N=C/c1ccc(O)cc1)c1cncc(Br)c1 | inconclusive: -43.9%
COc1ccc(C(c2nnnn2C2CCCCC2)N2CCN(c3ccccc3F)CC2)cc1 (configuration not stated) | inconclusive: -42.2%
CC(C)N(C(=O)CSc1nc2ccc(Cl)cc2[nH]1)c1ccccc1 | inconclusive: -53.5%
COc1ccccc1CNC(=O)CCCc1nnc2n(CC(C)C)c(=O)c3sccc3n12 | inconclusive: -44.5%
CCOc1ccc2[nH]c(=O)c(CN(Cc3ccco3)C(CC)c3nnnn3Cc3ccccc3)cc2c1 (configuration not stated) | inconclusive: -58.3%
COC(=O)C1=C(C)N(Cc2ccc(F)cc2)C(=S)NC1c1ccc(Cl)cc1 (configuration not stated) | inconclusive: -55.5%
COc1ccc(Br)cc1CNCCc1ccc2c(c1)OCO2 | inconclusive: -47.4%
CCN(CC(=O)NCc1cccs1)S(=O)(=O)c1ccccc1Cl | inactive: -37%
O=C(Nc1cccc(-c2nc3ccccc3o2)c1)c1ccc(-c2ccc(Br)cc2)o1 | inactive: 3.5%
CCn1ncc(/C=N\NC(=O)COc2cc(C)cc(C)c2)c1C | inconclusive: -47%
Cc1ccccc1-c1nn(-c2ccccc2)cc1C(=O)NCC(c1ccco1)N1CCCC1 (configuration not stated) | inactive: -22.2%
NC(=O)c1ccc(N2CCN(c3ccc(O)cc3)CC2)c([N+](=O)[O-])c1 | active: -66%
COc1ccc(NC(=O)c2cccc(Cl)c2)c[n+]1[O-] | inconclusive: -46.6%
Cc1c(-c2cccc(Cl)c2)nc2ccccc2c1C(=O)OCC(=O)Nc1ccc2c(c1)OCO2 | inconclusive: -52.8%
CCn1cc(/C=C/C(=O)Nc2ccn(Cc3c(F)c(F)c(F)c(F)c3F)n2)cn1 | inconclusive: -55.9%
COc1cccc(NC(=O)CN(C)C(=O)c2cccc(NS(=O)(=O)c3ccc(Br)cc3)c2)c1 | inactive: 0%
CCCCN(CC)C(=S)Nc1ccc2nc3n(c(=O)c2c1)CCCCC3 | inconclusive: -40%
COc1ccc(C(C)NC(=S)NCc2ccc(F)cc2)cc1OC (configuration not stated) | inactive: -1.06%
Cc1cc(NC(=O)CCC(=O)N(c2ccccc2)C(C(=O)NC2CCCCC2)c2cccs2)no1 (configuration not stated) | active: -64.6%
COc1ccccc1/C=C1\CCCC2=C1Nc1nnnn1C2c1ccccc1OC (configuration not stated) | inconclusive: -41.7%
CCC(Cc1ccccc1)NC(=O)Cn1cccc1C(=O)c1ccccc1 (configuration not stated) | inconclusive: -53.2%

SMILES | activity change, negative = inhibition
Cc1ccccc1NC(=O)C1CCN(c2cc(-c3ccccc3)nc3ncnn23)CC1 | inconclusive: -51.4%
COc1ccccc1NS(=O)(=O)c1cc(NC(=O)CCC(=O)c2cccs2)ccc1Cl | inconclusive: -55.4%
COc1ccccc1N1CCN(S(=O)(=O)c2cc(Br)cnc2N)CC1 | inactive: -6.8%
CCOC(=O)c1c(NC(=O)OC)sc(C(=O)N(C)C)c1C | inactive: -17.7%
S=C(N/N=C/c1ccc(Cl)c(Cl)c1)Nc1ccccc1Cl | inconclusive: -49.4%
c1ccc(CSc2ncnc3c2cnn3-c2ccccc2)cc1 | inconclusive: -40.1%
O=C1CC(c2ccccc2)CC(O)=C1C=Nc1ccc(O)cc1 (configuration not stated) | inconclusive: -45.1%
Cc1cccc(/C=C(\c2nc3ccccc3[nH]2)S(=O)(=O)c2ccccc2)c1 | active: -98.3%
[O-][n+]1onc2c1CCc1c-2nn(-c2ccccc2Cl)[n+]1[O-] | active: -99.7%
O=C(c1ccccc1)N(Cc1cccc(Br)c1)C1CCS(=O)(=O)C1 (configuration not stated) | inconclusive: -53.6%
Cc1cccc(C(=O)Nc2ccc3c(c2)C(=O)NC3=O)c1 | inconclusive: -53.4%
Cc1ccc(C(=O)OCCc2sc[n+](Cc3ccccc3)c2C)cc1 | inactive: -39.7%
Cc1ccc(C(C#N)c2ccc(C(=O)c3ccc(F)cc3)cc2)cc1 (configuration not stated) | active: -77.7%
CCOc1ccc(-c2cccc(NS(=O)(=O)c3c(C)cc(C)cc3C)c2)nn1 | inconclusive: -53.6%
Cc1ccc2oc3c(c(=O)c2c1)C(c1ccc(F)cc1)N(Cc1ccc2c(c1)OCO2)C3=O (configuration not stated) | inactive: -7.09%
COc1ccc(NC(=O)c2cc(Cl)ccc2Cl)c([N+](=O)[O-])c1 | inconclusive: -44%
CCN(CC)c1nc2c(c(=O)n(C)c(=O)n2C)n1CC(=O)c1ccccc1 | inactive: 26.4%
COc1ccccc1N(C)S(=O)(=O)c1ccc(C(=O)Nc2nccs2)cc1 | inconclusive: -45.6%
Clc1cccc(CN2CCc3c([nH]c4ccccc34)C2)c1Cl | active: -91%
COc1ccc2oc(C(=O)OCC(=O)NCCN3C(=O)CSC3=O)c(C)c2c1 | inactive: 20.4%
O=C(O)c1ccccc1Cc1nc2cc(Cl)ccc2c(=O)[nH]1 | inconclusive: -44.2%
COc1ccc(-n2c(C)cc(C(=O)C[N+]34CCN(CC3)CC4)c2C)cc1 | inconclusive: -58%

Among those listed so far, 15 contain four or more nitrogen atoms:
SMILES | activity change, negative = inhibition
COc1ccc(C(c2nnnn2C2CCCCC2)N2CCN(c3ccccc3F)CC2)cc1 (configuration not stated) | inconclusive: -42.2%
COc1ccccc1CNC(=O)CCCc1nnc2n(CC(C)C)c(=O)c3sccc3n12 | inconclusive: -44.5%
CCOc1ccc2[nH]c(=O)c(CN(Cc3ccco3)C(CC)c3nnnn3Cc3ccccc3)cc2c1 (configuration not stated) | inconclusive: -58.3%
CCn1ncc(/C=N\NC(=O)COc2cc(C)cc(C)c2)c1C | inconclusive: -47%
Cc1ccccc1-c1nn(-c2ccccc2)cc1C(=O)NCC(c1ccco1)N1CCCC1 (configuration not stated) | inactive: -22.2%
NC(=O)c1ccc(N2CCN(c3ccc(O)cc3)CC2)c([N+](=O)[O-])c1 | active: -66%
CCn1cc(/C=C/C(=O)Nc2ccn(Cc3c(F)c(F)c(F)c(F)c3F)n2)cn1 | inconclusive: -55.9%
CCCCN(CC)C(=S)Nc1ccc2nc3n(c(=O)c2c1)CCCCC3 | inconclusive: -40%
Cc1cc(NC(=O)CCC(=O)N(c2ccccc2)C(C(=O)NC2CCCCC2)c2cccs2)no1 (configuration not stated) | active: -64.6%
COc1ccccc1/C=C1\CCCC2=C1Nc1nnnn1C2c1ccccc1OC (configuration not stated) | inconclusive: -41.7%
Cc1ccccc1NC(=O)C1CCN(c2cc(-c3ccccc3)nc3ncnn23)CC1 | inconclusive: -51.4%
COc1ccccc1N1CCN(S(=O)(=O)c2cc(Br)cnc2N)CC1 | inactive: -6.8%
c1ccc(CSc2ncnc3c2cnn3-c2ccccc2)cc1 | inconclusive: -40.1%
[O-][n+]1onc2c1CCc1c-2nn(-c2ccccc2Cl)[n+]1[O-] | active: -99.7%
CCN(CC)c1nc2c(c(=O)n(C)c(=O)n2C)n1CC(=O)c1ccccc1 | inactive: 26.4%

Sorted by SMILES length (rising): three of the compounds above
SMILES | activity change, negative = inhibition
O=C(O)c1ccccc1Cc1nc2cc(Cl)ccc2c(=O)[nH]1 | inconclusive: -44.2%
[O-][n+]1onc2c1CCc1c-2nn(-c2ccccc2Cl)[n+]1[O-] | active: -99.7%
CCN(CC)c1nc2c(c(=O)n(C)c(=O)n2C)n1CC(=O)c1ccccc1 | inactive: 26.4%

Carrying on:

SMILES | activity change, negative = inhibition
C=C1CCC(O)C2(C)CCC3C(C)C(=O)OC3C12O (configuration not stated) | inconclusive: -47%
CC(C)(C)OC(=O)CNC(=O)c1[nH]cnc1C(=O)N[C@@H](CCCCNC(=O)OC(C)(C)C)C(=O)OC(C)(C)C | inconclusive: -44.5%
CCC(=O)N1CCc2cc(S(=O)(=O)N3CCc4ccccc4C3)ccc21 | inconclusive: -49.1%
CCOc1ccc(CN(CCO)CCO)cc1[N+](=O)[O-] | active: -67.8%
CC(C)CNC(=O)C1(C)CCCN1Cc1ccc(S(C)(=O)=O)cc1 (configuration not stated) | active: -102%
CCOC(=O)c1cnc2ccc(OC)cc2c1NCCc1ccccc1 | inconclusive: -53.5%
CCOc1ccc(S(=O)(=O)NCCC(=O)NCCc2ccc(C(C)C)cc2)cc1 | inconclusive: -44.3%
CCC(C)c1ccccc1NC(=O)COC(=O)C1=NN(c2ccccc2)C(=O)CC1 (configuration not stated) | inconclusive: -41.9%
CCn1c(C)nc2c(C)[n+](CC(=O)c3ccc(Br)cc3)ccc21 | inconclusive: -56.3%
CCn1cc(C(=O)OCC(=O)NCc2ccccc2Cl)c(=O)c2ccc(C)nc21 | active: -102%
N#Cc1ccc(C(=O)NC(=S)NC2CCCCC2)cc1 | inconclusive: -50.9%
CC(=O)Nc1nc2ccccc2n1Cc1ccccc1Cl | active: -96.3%
Cc1cccc(OC(C)C(=O)Nc2ccc(S(=O)(=O)N3CCCC3)cc2)c1 (configuration not stated) | inconclusive: -59.4%
CC(=O)N1CCc2cc(S(=O)(=O)C(C)CC(=O)NCc3ccco3)ccc21 (configuration not stated) | inconclusive: -53.7%
CCCCCC(=O)NNC(=O)c1c(O)c2ccccc2n(CC)c1=O | inconclusive: -46.6%
O=c1cc(-c2ccccc2)n2c(SCc3ccccc3)nnc2[nH]1 | inconclusive: -58.6%
CCC(CC)NC(=O)c1cccc(Br)c1 | inactive: 43.2%
Cc1cc(C)c(NC(=O)COC(=O)Cc2ccsc2)c(C)c1 | inconclusive: -50.4%
COc1cc(/C=C2\SC(=S)N(CC(=O)O)C2=O)ccc1OC(=O)c1ccco1 | inconclusive: -50.7%
Cc1ccc(C(=O)NCC(=O)O)o1 | inconclusive: -44.5%
COc1ccc(N2CCN(C(=O)CCS(=O)(=O)c3ccc4c(c3)NC(=O)C(C)S4)CC2)cc1 (configuration not stated) | inconclusive: -45.9%
CCc1ccc([C@H]2[C@@H]3C(=O)C[C@@H]4C(=O)NC(=O)[C@@H]4[C@@H]3CN2S(=O)(=O)c2ccc(C)cc2)cc1 | inactive: 6.47%

SMILES | activity change, negative = inhibition
Cc1cc(C)nc(N/N=C/c2sccc2C)n1 | active: -80.2%
CCCCNC(=O)C(C)N(CCN(C)C)C(=O)CCCN1C(=O)NC(c2ccc(Cl)cc2)C(C(=O)OCc2ccccc2)=C1C (configuration not stated) | active: -68%
CC(=O)c1ccc(OCC(O)COc2ccc(C(C)=O)cc2)cc1 | inactive: -31%
Cc1cc(SCC(=O)Nc2cccc(S(N)(=O)=O)c2)c(C)cc1Br | inconclusive: -47.8%
Cc1cc(NC(=O)c2ccc3c(c2)OCO3)ccc1NC(=O)c1ccco1 | inconclusive: -57%
O=C(CCc1nc(-c2ccccc2F)no1)Nc1ccc(Oc2ccccc2)cc1 | active: -63.7%
NC(=O)c1cc([N+](=O)[O-])ccc1NCc1ccc(F)cc1 | active: -80.8%
COc1ccccc1NC(=O)Cn1nnc(C(=O)NCc2ccc3c(c2)OCO3)c1N | active: -69.3%
CCc1ccc(/C=C2\SC(=S)N(CCCC(=O)N3CCCC3)C2=O)cc1 | active: -99%
COc1ccc(CNS(=O)(=O)c2c(C)[nH]c(C)c2C(=O)N2CCCC2)cc1 | active: -62%
COc1ccc(/C=N/Nc2cc(C)nc3ccccc23)cc1 | active: -104%
CCc1c(C)sc2nc3c(C(=O)N4CCOCC4)cc(C(=O)c4ccccc4O)cn3c(=O)c12 | inconclusive: -46.1%
Cc1cccc(OCC(O)CN2CCN(S(=O)(=O)c3ccc(C)cc3C)CC2)c1 (configuration not stated) | inconclusive: -41.3%
COc1ccccc1NS(=O)(=O)c1cc(NC(=O)C2=NNC(=O)CC2)ccc1C | inconclusive: 0%
CN=C1SC(CC(=O)NCCc2ccc(OC)c(OC)c2)C(=O)N1C (configuration not stated) | active: -63.5%
Cc1ccc(OCC(O)CN2CCC(Cc3ccccc3)CC2)c(C)c1 (configuration not stated) | active: -77.1%
CCOc1ccc(N2C(=O)Cc3ccccc3C2=O)cc1 | inconclusive: -41.8%
CCOC(=O)Cn1c(=O)oc2cc(S(=O)(=O)NCc3ccccn3)ccc21 | inconclusive: -44.2%
O=C(c1ccco1)N1CCN(c2nc3ccsc3c(=O)s2)CC1 | inactive: -4.92%
CCc1ccc(CNCc2c(C(=O)O)n(Cc3cccc(F)c3)c3cc(OC)ccc23)cc1 | inconclusive: -48.9%
CCc1nnc(NC(=O)c2ccc(COc3ccccc3Cl)o2)s1 | inconclusive: -43.2%
